PubChem BioAssay AID1224828 – NIAID, 2016
This is a random part of about 17,000 deposited reagents. 762 of them (4.5%) count as active. 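Active calls include both raised and lowered p65 entry, mostly lowered; wells with fewer than 50 cells lack a z-score.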 Raw values are not corrected between plates. No sequences are given here.

Purpose: 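Knock-downs that increase or decrease LPS-induced p65 nuclear translocation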 (primary screen)
Cells: mouse RAW264.7 G9 macrophage reporter cells (GFP-p65, Tnf promoter-mCherry)
Reagent: siRNA pool against mouse genes, 100 nM
Duration: 2 days siRNA transfection, then 40 min LPS before fixation
Treatment: LPS (Salmonella minnesota R595) at 10 ng/ml
Detection: 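Microscopy ratio of nuclear to perinuclear-ring GFP-p65 signal, scaled to the plate median; gene score is the average of two replicate robust z-scores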
Scale: p65 translocation robust z-score: higher = more nuclear NF-kappaB p65 after LPS than the plate median; nuclear/cytoplasmic p65 ratio: higher = more nuclear NF-kappaB p65
Rule for the call: 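Called active when z exceeds 3.3 or falls under -1.56 (median of Tlr4 controls), giving activity score of at least 50; no calls for control wells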
Meaning of the calls: active = hit (p65 shift raised or lowered); inactive = no clear change

Against Tmem87a [SID315477689], the entry reads p65 translocation robust z-score 0.94; nuclear/cytoplasmic p65 ratio, rep 1 = 1.59; nuclear/cytoplasmic p65 ratio, rep 2 = 1.56; low cell count flag enough cells to score; inactive.
After knock-down of Prr36 [SID315474670], the screen gave p65 translocation robust z-score 0.77; nuclear/cytoplasmic p65 ratio, rep 1 = 1.92; nuclear/cytoplasmic p65 ratio, rep 2 = 1.58; low cell count flag enough cells to score; inactive.
Csf2ra [SID315466159] showed p65 translocation robust z-score -1.78; nuclear/cytoplasmic p65 ratio, rep 1 = 1.2; nuclear/cytoplasmic p65 ratio, rep 2 = 1.18; low cell count flag enough cells to score; active.
After knock-down of Fgf9 [SID315466674] the results were p65 translocation robust z-score 0.59; nuclear/cytoplasmic p65 ratio, rep 1 = 1.5; nuclear/cytoplasmic p65 ratio, rep 2 = 1.46; low cell count flag enough cells to score; inactive.
Silencing of Parp1 [SID315465322] came out at: p65 translocation robust z-score 0.45; nuclear/cytoplasmic p65 ratio, rep 1 = 1.56; nuclear/cytoplasmic p65 ratio, rep 2 = 1.81; low cell count flag enough cells to score; inactive.
Against Klf9 [SID315467646], the values are p65 translocation robust z-score -0.21; nuclear/cytoplasmic p65 ratio, rep 1 = 1.62; nuclear/cytoplasmic p65 ratio, rep 2 = 1.55; low cell count flag enough cells to score; inactive.
Pdzd7 [SID315477757] showed p65 translocation robust z-score 0.91; nuclear/cytoplasmic p65 ratio, rep 1 = 1.55; nuclear/cytoplasmic p65 ratio, rep 2 = 1.68; low cell count flag enough cells to score; inactive.
Crym [SID315466153] scored p65 translocation robust z-score 0.09; nuclear/cytoplasmic p65 ratio, rep 1 = 1.54; nuclear/cytoplasmic p65 ratio, rep 2 = 1.34; low cell count flag enough cells to score; inactive.
Silencing of Twist2 [SID315466313] gave: nuclear/cytoplasmic p65 ratio, rep 1 = 1.05; nuclear/cytoplasmic p65 ratio, rep 2 = 0.851; low cell count flag fewer than 50 cells per well; well left out of scoring; inactive.
Neurod4 [SID315465540] gave p65 translocation robust z-score 0.25; nuclear/cytoplasmic p65 ratio, rep 1 = 1.89; nuclear/cytoplasmic p65 ratio, rep 2 = 1.57; low cell count flag enough cells to score; inactive.
Ros1 [SID315469000] showed p65 translocation robust z-score 0.69; nuclear/cytoplasmic p65 ratio, rep 1 = 1.96; nuclear/cytoplasmic p65 ratio, rep 2 = 1.33; low cell count flag enough cells to score; inactive.
After knock-down of Trem5 [SID315481497] the results were nuclear/cytoplasmic p65 ratio, rep 1 = 1.44; nuclear/cytoplasmic p65 ratio, rep 2 = 1.5; low cell count flag fewer than 50 cells per well; well left out of scoring; inactive.
After knock-down of Pthlh [SID315468783], the screen gave p65 translocation robust z-score -1.05; nuclear/cytoplasmic p65 ratio, rep 1 = 1.33; nuclear/cytoplasmic p65 ratio, rep 2 = 1.29; low cell count flag enough cells to score; inactive.
Against Pus1 [SID315471479] the deposit lists p65 translocation robust z-score 0.82; nuclear/cytoplasmic p65 ratio, rep 1 = 1.56; nuclear/cytoplasmic p65 ratio, rep 2 = 1.24; low cell count flag enough cells to score; inactive.
Depletion of Hdac4 [SID315477551] resulted in: p65 translocation robust z-score -0.84; nuclear/cytoplasmic p65 ratio, rep 1 = 1.45; nuclear/cytoplasmic p65 ratio, rep 2 = 1.52; low cell count flag enough cells to score; inactive.
Susd6 [SID315478138] scored p65 translocation robust z-score 0.07; nuclear/cytoplasmic p65 ratio, rep 1 = 1.4; nuclear/cytoplasmic p65 ratio, rep 2 = 1.47; low cell count flag enough cells to score; inactive.
Against Asb18 [SID315477533], the entry reads p65 translocation robust z-score 0.5; nuclear/cytoplasmic p65 ratio, rep 1 = 1.67; nuclear/cytoplasmic p65 ratio, rep 2 = 1.59; low cell count flag enough cells to score; inactive.
Sox6 [SID315469391] showed nuclear/cytoplasmic p65 ratio, rep 1 = 1.28; nuclear/cytoplasmic p65 ratio, rep 2 = 1.34; low cell count flag fewer than 50 cells per well; well left out of scoring; inactive.
Adgrl1 [SID315481617] scored p65 translocation robust z-score 0.09; nuclear/cytoplasmic p65 ratio, rep 1 = 1.45; nuclear/cytoplasmic p65 ratio, rep 2 = 1.67; low cell count flag enough cells to score; inactive.
Against Gm5087 [SID315481474], the entry reads p65 translocation robust z-score 1.47; nuclear/cytoplasmic p65 ratio, rep 1 = 1.71; nuclear/cytoplasmic p65 ratio, rep 2 = 2.13; low cell count flag enough cells to score; inactive.
Airn [SID315476415] showed p65 translocation robust z-score 0.67; nuclear/cytoplasmic p65 ratio, rep 1 = 1.39; nuclear/cytoplasmic p65 ratio, rep 2 = 1.66; low cell count flag enough cells to score; inactive.
For Clstn1 [SID315472158] the deposit lists p65 translocation robust z-score -0.53; nuclear/cytoplasmic p65 ratio, rep 1 = 1.44; nuclear/cytoplasmic p65 ratio, rep 2 = 1.27; low cell count flag enough cells to score; inactive.
After knock-down of Wdr36 [SID315478414], the record shows p65 translocation robust z-score 2.28; nuclear/cytoplasmic p65 ratio, rep 1 = 1.77; nuclear/cytoplasmic p65 ratio, rep 2 = 1.65; low cell count flag enough cells to score; inactive.
With knock-down of Cox6a2 [SID315466082], the screen gave p65 translocation robust z-score -0.79; nuclear/cytoplasmic p65 ratio, rep 1 = 1.52; nuclear/cytoplasmic p65 ratio, rep 2 = 1.59; low cell count flag enough cells to score; inactive.
Map4k2 [SID315470389] gave nuclear/cytoplasmic p65 ratio, rep 1 = 1.56; nuclear/cytoplasmic p65 ratio, rep 2 = 1.33; low cell count flag fewer than 50 cells per well; well left out of scoring; inactive.
Cmtm6 [SID315472903] scored p65 translocation robust z-score 0.82; nuclear/cytoplasmic p65 ratio, rep 1 = 1.62; nuclear/cytoplasmic p65 ratio, rep 2 = 2.02; low cell count flag enough cells to score; inactive.
With knock-down of Chrm5 [SID315477826], the screen gave p65 translocation robust z-score -2; nuclear/cytoplasmic p65 ratio, rep 1 = 1.12; nuclear/cytoplasmic p65 ratio, rep 2 = 1.19; low cell count flag enough cells to score; active.

A run of entries taken from the entries so far, as a working copy:
Csf2ra [SID315466159]: p65 translocation robust z-score = -1.78; nuclear/cytoplasmic p65 ratio, rep 1 = 1.2; nuclear/cytoplasmic p65 ratio, rep 2 = 1.18; low cell count flag = enough cells to score; activity call = active
Fgf9 [SID315466674]: p65 translocation robust z-score = 0.59; nuclear/cytoplasmic p65 ratio, rep 1 = 1.5; nuclear/cytoplasmic p65 ratio, rep 2 = 1.46; low cell count flag = enough cells to score; activity call = inactive
Parp1 [SID315465322]: p65 translocation robust z-score = 0.45; nuclear/cytoplasmic p65 ratio, rep 1 = 1.56; nuclear/cytoplasmic p65 ratio, rep 2 = 1.81; low cell count flag = enough cells to score; activity call = inactive
